The exact form of at least one protein or probe is not confirmed. At least one verdict rests on a figure or table, not on a statement of the authors.
Test system: CsrA + Hfq
Test: EMSA
Settings: 6 uM CsrA + Hfq, likely ternary complex; 10 nM denatured RNA, 0-6 uM CsrA, 0-3 uM Hfq; 1X binding buffer (10 mM Tris-HCl pH 7.5, 10 mM MgCl2, 100 mM KCl) plus CsrA dilution buffer, 11% glycerol, 20 mM DTT; recombinant protein; label: internal 32P-UTP

“GAUGAAGCAAGGGGGUGCCCCAUGCGUCAGUUUUAUCAGCACUAUUUUACCGCGACAGCGAAGUUGUGCUGGUUGCGUUGGUUAAGCGUCCCACAACGAUUAACCAUGCUUGAAGGACUGAUGCAGUGGGAUGACCGCAAUUCUGAAAGUUGACUUGCCUGCAUCAUGUGUGACUGAGUAUUGGUGUAAAAUCACCCGCCAGCAGAUUAUACCUGCUGGUUUUUUUU [SgrS]”: binds.
